Source: PMC3694902
These are yes or no findings as the source states them, for the method shown. In cells and extracts the contact can be indirect. Binding calls can cover weak binding; strength is not graded here.

By UniProt entry, the sequences of proteins in these tests, tags left out. Where a name states a change or a piece, a line headed by the entry shows the natural chain unless it says otherwise. Chains listed by the source or under a name are the forms on record and can include a tag or linker.
UniProt Q9H2X6: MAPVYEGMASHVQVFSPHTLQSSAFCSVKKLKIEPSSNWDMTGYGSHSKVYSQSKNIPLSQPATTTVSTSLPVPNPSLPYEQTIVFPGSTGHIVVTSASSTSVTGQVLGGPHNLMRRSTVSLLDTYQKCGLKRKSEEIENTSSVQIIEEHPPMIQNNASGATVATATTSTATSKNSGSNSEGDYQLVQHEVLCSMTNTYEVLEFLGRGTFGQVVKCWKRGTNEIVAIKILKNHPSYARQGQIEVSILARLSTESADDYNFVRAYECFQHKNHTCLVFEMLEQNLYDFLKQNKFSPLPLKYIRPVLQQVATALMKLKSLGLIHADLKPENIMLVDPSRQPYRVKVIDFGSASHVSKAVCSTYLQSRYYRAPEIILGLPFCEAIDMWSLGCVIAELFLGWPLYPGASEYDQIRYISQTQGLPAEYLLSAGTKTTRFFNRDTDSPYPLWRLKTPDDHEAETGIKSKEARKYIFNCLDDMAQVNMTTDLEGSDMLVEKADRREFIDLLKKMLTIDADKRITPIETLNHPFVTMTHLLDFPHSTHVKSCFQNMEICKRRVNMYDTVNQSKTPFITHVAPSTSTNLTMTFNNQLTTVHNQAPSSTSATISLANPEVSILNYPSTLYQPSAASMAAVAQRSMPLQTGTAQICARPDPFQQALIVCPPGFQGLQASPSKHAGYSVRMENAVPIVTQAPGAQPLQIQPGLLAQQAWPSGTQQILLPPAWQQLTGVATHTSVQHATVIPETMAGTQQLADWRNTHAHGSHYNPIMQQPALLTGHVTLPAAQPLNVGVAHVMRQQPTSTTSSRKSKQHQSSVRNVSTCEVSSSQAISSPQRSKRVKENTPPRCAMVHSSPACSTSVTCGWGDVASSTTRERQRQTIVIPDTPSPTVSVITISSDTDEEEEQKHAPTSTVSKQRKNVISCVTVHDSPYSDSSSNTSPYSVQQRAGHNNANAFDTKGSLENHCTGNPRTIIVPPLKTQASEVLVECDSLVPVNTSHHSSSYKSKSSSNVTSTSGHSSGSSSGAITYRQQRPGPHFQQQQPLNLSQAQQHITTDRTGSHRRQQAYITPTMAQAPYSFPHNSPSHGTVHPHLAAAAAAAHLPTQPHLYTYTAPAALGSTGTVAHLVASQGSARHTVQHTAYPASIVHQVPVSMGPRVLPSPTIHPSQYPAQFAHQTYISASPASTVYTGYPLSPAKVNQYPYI
UniProt O35625: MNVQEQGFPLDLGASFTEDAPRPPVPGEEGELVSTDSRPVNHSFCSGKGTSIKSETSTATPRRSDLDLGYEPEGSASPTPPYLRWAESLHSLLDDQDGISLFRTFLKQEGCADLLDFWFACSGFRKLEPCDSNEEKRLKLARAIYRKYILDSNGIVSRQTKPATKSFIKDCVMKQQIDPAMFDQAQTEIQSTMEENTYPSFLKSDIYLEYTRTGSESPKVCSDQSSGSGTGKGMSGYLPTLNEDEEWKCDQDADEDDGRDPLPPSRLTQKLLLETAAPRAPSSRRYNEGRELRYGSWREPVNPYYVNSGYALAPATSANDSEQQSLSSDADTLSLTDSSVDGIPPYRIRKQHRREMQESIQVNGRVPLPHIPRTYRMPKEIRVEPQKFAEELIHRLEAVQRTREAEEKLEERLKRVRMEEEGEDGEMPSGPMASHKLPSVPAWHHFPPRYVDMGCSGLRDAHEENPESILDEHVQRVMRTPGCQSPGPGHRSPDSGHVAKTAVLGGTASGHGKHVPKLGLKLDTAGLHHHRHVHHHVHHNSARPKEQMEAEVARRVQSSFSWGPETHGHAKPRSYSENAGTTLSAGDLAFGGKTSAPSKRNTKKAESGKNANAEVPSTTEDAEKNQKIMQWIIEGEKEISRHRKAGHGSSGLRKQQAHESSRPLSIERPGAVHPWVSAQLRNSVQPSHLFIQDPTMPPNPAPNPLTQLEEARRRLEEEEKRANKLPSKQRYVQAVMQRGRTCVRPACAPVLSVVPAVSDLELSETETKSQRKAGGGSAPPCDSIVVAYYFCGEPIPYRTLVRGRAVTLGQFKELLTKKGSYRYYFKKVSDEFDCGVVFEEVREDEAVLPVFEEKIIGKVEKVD
Myc-MDM2 (Q00987-11, form named): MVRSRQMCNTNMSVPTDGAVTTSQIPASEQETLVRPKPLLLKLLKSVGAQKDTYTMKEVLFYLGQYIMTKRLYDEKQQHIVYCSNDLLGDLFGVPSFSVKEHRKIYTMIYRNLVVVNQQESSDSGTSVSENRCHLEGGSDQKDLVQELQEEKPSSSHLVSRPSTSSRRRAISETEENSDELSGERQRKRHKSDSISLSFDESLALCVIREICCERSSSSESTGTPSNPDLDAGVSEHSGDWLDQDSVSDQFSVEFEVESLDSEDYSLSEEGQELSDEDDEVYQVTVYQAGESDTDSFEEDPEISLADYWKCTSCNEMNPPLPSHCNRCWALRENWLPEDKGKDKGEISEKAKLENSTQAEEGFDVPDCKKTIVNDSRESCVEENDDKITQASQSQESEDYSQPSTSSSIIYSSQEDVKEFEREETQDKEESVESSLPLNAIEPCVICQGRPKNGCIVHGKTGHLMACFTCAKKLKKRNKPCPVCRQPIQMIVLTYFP

Molecular target: HIPK2Δp53 (UniProt Q9H2X6)
Test: co-IP; HEK 293T cells co-transfected with HIPK2Δp53, Axin and MDM2 or MDM2 (C464A) in different combinations; immunoprecipitation and western blot (Figure 5C); which protein was precipitated is not told

| binding | Substance |
| --- | --- |
| binds | Axin (untagged), expressed in HEK 293T cells (from UniProt O35625 1-863) |
| binds | Myc-MDM2 (from UniProt Q00987-11 1-497) |
